Assay results: US10925840B2, “Use of fenoterol and fenoterol analogues in the treatment of glioblastomas and astrocytomas” (priority 2010, dated 2021)
At least one compound was matched to its structure with a doubt left.

Tested on: 1321N1 cells
Assay: Western blot of cell cycle proteins in 1321N1 cells
Type: cell-based, human

C[C@H](Cc1ccc(O)cc1)NC[C@H](O)c1cc(O)cc(O)c1 [(R,R)-1, (R,R)-(−)-Fenoterol]
phosphorylation of ERK1/2: only a modest effect | protein expression of cyclin A: down-regulated | protein expression of cyclin D1: down-regulated | phosphorylation of Akt at Ser-473 (dose dependent, nanomolar concentrations): inhibited | protein level of p27 (nanomolar concentrations): significantly increased
